Test results published in PMC5157023.
Results are given in words; binding and its absence hold for the method and conditions named. Binding seen in cells or lysates may run through a third protein. Some results given as binding are weak or reduced against the parent protein; the word gives no strength. Sequences can lack the tags named with a protein.

Molecular target: V5-tagged RE-1 silencing transcription factor (REST) (UniProt Q13127)
Assay: co-IP; V5 antibody-conjugated beads mixed with lysates of HEK293FT cells transfected with pcDNA_V5 or pcDNA_REST-V5; western blot of endogenous partners; lysis buffer 50 mM Tris-HCl pH 7.4, 150 mM NaCl, 5 mM EDTA, 0.2% TritonX-100, 15 U/ml DNAse I

binding: binds
B1: HnRNP Q (protein, UniProt O60506 1-623)
chain: MATEHVNGNGTEEPMDTTSAVIHSENFQTLLDAGLPQKVAEKLDEIYVAGLVAHSDLDERAIEALKEFNEDGALAVLQQFKDSDLSHVQNKSAFLCGVMKTYRQREKQGTKVADSSKGPDEAKIKALLERTGYTLDVTTGQRKYGGPPPDSVYSGQQPSVGTEIFVGKIPRDLFEDELVPLFEKAGPIWDLRLMMDPLTGLNRGYAFVTFCTKEAAQEAVKLYNNHEIRSGKHIGVCISVANNRLFVGSIPKSKTKEQILEEFSKVTEGLTDVILYHQPDDKKKNRGFCFLEYEDHKTAAQARRRLMSGKVKVWGNVGTVEWADPIEDPDPEVMAKVKVLFVRNLANTVTEEILEKAFSQFGKLERVKKLKDYAFIHFDERDGAVKAMEEMNGKDLEGENIEIVFAKPPDQKRKERKAQRQAAKNQMYDDYYYYGPPHMPPPTRGRGRGGRGGYGYPPDYYGYEDYYDYYGYDYHNYRGGYEDPYYGYEDFQVGARGRGGRGARGAAPSRGRGAAPPRGRAGYSQRGGPGSARGVRGARGGAQQQRGRGVRGARGGRGGNVGGKRKADGYNQPDSKRRQTNNQNWGSQPIAQQPLQGGDHSGNYGYKSENQEFYQDTFGQQWK
